Test results: ChEMBL document CHEMBL1908284, “Rational use of in vitro P-glycoprotein assays in drug discovery” (J Pharmacol Exp Ther, 2001)

Chains of the proteins cited; added tags and fusions are not shown.
UniProt P08183, whole entry: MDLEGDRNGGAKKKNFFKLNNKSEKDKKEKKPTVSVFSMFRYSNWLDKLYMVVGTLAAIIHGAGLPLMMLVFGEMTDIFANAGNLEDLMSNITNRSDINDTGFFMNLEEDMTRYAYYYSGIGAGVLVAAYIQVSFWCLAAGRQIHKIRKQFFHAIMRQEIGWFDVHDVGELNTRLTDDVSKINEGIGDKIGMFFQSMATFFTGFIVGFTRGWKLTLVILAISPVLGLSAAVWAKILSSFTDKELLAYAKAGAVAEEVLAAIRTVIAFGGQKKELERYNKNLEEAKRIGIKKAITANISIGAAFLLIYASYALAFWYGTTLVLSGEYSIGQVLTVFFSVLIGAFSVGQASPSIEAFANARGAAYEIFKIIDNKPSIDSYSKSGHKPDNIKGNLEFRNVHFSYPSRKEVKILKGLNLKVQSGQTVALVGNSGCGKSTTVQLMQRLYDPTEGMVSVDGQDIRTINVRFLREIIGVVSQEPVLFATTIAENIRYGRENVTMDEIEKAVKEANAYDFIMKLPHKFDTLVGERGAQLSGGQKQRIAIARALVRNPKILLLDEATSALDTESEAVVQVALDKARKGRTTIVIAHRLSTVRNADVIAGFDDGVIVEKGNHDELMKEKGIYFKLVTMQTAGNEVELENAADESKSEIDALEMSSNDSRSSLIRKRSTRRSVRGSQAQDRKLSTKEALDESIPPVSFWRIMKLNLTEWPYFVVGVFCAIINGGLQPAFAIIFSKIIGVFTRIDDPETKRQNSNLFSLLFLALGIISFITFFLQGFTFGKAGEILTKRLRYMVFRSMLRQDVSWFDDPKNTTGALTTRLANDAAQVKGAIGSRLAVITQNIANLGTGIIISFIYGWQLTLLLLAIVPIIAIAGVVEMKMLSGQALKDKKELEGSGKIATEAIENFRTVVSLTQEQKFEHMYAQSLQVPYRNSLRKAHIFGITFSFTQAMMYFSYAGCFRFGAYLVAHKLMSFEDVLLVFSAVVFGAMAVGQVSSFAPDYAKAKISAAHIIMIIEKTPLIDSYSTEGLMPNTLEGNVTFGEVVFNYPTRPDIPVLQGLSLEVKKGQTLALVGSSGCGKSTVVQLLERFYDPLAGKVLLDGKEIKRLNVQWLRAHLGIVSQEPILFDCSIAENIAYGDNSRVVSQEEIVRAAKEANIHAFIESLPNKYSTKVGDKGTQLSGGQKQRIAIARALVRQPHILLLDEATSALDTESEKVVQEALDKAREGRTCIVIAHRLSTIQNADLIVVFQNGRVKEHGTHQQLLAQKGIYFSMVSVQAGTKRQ

Columns and labels:
[1] = target: ATP-dependent translocase ABCB1 (Homo sapiens, UniProt P08183); settings: spodoptera frugiperda, sf9, 20 µM;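 also: Compound-stimulated ATPase activity measured in membrane preparations of MDR1-expressing Sf9 cells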
[2] = target: T1, ATP-dependent translocase ABCB1 (MDR1) (Homo sapiens, UniProt P08183); assay: in vitro; settings: dog, MDCK-MDR1
[3] = target: T1, ATP-dependent translocase ABCB1 (MDR1); assay: in vitro; settings: dog, MDCK-MDR1; remark: listed apart in the source
[4] = target: T1, ATP-dependent translocase ABCB1 (MDR1); assay: in vitro; settings: dog, MDCK-MDR1; remark: listed apart in the source

## COC(=O)C1=C(C)NC(C)=C(C(=O)OC)C1c1ccccc1[N+](=O)[O-] [NIFEDIPINE]
[1]
  Ratio_ATPase activity: 2.08
[2]
  Papp A→B: 61 ×10⁻⁶ cm/s
[3]
  Papp B→A: 76.5 ×10⁻⁶ cm/s
[4]
  efflux ratio: 1.26
